Experimental data: PubChem BioAssay AID1259254 (NCATS, 2017)
Purpose: 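Gene knock-downs that lead to re-replication, shown by excess G2 DNA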 (primary screen). Cell system: human HCT116 colorectal cancer cells. Reagent: single siRNA against human genes. Timing: 3 days. Read-out: 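Nuclei stained with Hoechst and imaged; cell-cycle phase assigned by DNA content; G2 share scaled per plate, non-targeting siRNA 0%, GMNN siRNA 100%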. Reading the numbers: G2 robust z-score and G2 cells, % of GMNN control: higher = more G2 cells, more excess DNA replication; raw share of cells in G2: higher = larger share of cells with G2 DNA content. Rule for the call: 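An siRNA counts as active if its G2 robust z-score lies at least 5 MADs above the screen median; here such calls match roughly 38% of GMNN control or more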.
This is one part, drawn at random, of about 59,000 reagents. In the full data, about 1,550 (2.6%) are marked active. 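G2 share is only a proxy for re-replication; each gene was hit by three separate siRNAs, and active genes were retested.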 Raw values vary from plate to plate and are shown uncorrected. Unmarked entries are inactive. Reagents against one gene are numbered here. The record does not give: the amount of reagent.

| gene knocked down | reagent | G2 robust z-score | G2 cells, % of GMNN control | raw share of cells in G2 (%) |
| --- | --- | --- | --- | --- |
| S100A4 | 1 | -0.622 | -1.41 | 2.9 |
| S100A4 | 2 | -0.7 | -1.96 | 3.93 |
| S100A4 | 3 | -0.0474 | 2.63 | 4.06 |
| RUFY1 | 1 | -0.433 | -0.0765 | 2.76 |
| RUFY1 | 2 | -1.13 | -4.96 | 3.67 |
| RUFY1 | 3 | -0.247 | 1.23 | 4.02 |
| ARSJ | 1 | 5.24 (active) | 39.8 | 22 |
| ARSJ | 2 | 0.529 | 6.69 | 6.62 |
| ARSJ | 3 | 1.44 | 13.1 | 9.64 |
| LACC1 | 1 | -0.228 | 1.36 | 4.29 |
| LACC1 | 2 | 2.15 | 18.1 | 8.5 |
| LACC1 | 3 | -0.548 | -0.891 | 2.76 |
| LINC02877 | 1 | 1.04 | 10.3 | 7.28 |
| LINC02877 | 2 | 9.27 (active) | 68.2 | 24 |
| LINC02877 | 3 | -0.382 | 0.282 | 3.17 |
| RBL2 | 1 | -0.746 | -2.28 | 4.19 |
| RBL2 | 2 | -0.0472 | 2.64 | 5.69 |
| RBL2 | 3 | -0.186 | 1.66 | 4.7 |
| BCLAF3 | 1 | -0.112 | 2.18 | 4.37 |
| BCLAF3 | 2 | 0.348 | 5.42 | 4.98 |
| BCLAF3 | 3 | 0.247 | 4.71 | 4.7 |
| NUDT21 | 1 | -0.589 | -1.18 | 5.9 |
| NUDT21 | 2 | 0.877 | 9.14 | 7.21 |
| NUDT21 | 3 | 0.219 | 4.51 | 5.41 |
| PRKX | 1 | -0.397 | 0.174 | 5.67 |
| PRKX | 2 | -0.165 | 1.81 | 4.66 |
| PRKX | 3 | -0.804 | -2.69 | 4.5 |
| CRBN | 1 | -0.361 | 0.424 | 4.02 |
| CRBN | 2 | -0.468 | -0.329 | 4.42 |
| CRBN | 3 | 1.07 | 10.5 | 6.56 |
| HACD4 | 1 | 6.82 (active) | 51 | 22.3 |
| HACD4 | 2 | 0.41 | 5.85 | 5.84 |
| HACD4 | 3 | -0.66 | -1.68 | 4.09 |
| TBC1D10A | 1 | 1.35 | 12.4 | 9.39 |
| TBC1D10A | 2 | 0.162 | 4.11 | 5.68 |
| TBC1D10A | 3 | 0.366 | 5.54 | 7.74 |
| LOC728254 (retired record) | 1 | 0.0268 | 3.16 | 4.74 |
| LOC728254 (retired record) | 2 | 0.248 | 4.71 | 4.53 |
| LOC728254 (retired record) | 3 | -0.697 | -1.93 | 2.87 |
| HPSE | 1 | 4.09 | 31.7 | 19.5 |
| HPSE | 2 | 0.812 | 8.68 | 6.65 |
| HPSE | 3 | -0.0206 | 2.82 | 7.59 |
| NMB | 1 | -0.837 | -2.92 | 2.23 |
| NMB | 2 | 2.55 | 20.9 | 13.4 |
| NMB | 3 | -1.51 | -7.68 | 2.43 |
| HTR1F | 1 | -0.379 | 0.3 | 5.95 |
| HTR1F | 2 | 0.425 | 5.96 | 6.6 |
| HTR1F | 3 | -1.02 | -4.19 | 1.98 |
| BAMBI | 1 | 6.4 (active) | 48 | 22.5 |
| BAMBI | 2 | 0.238 | 4.64 | 5.95 |
| BAMBI | 3 | -0.519 | -0.685 | 3.06 |
| FAM227B | 1 | -0.485 | -0.444 | 3.44 |
| FAM227B | 2 | -0.828 | -2.86 | 2 |
| FAM227B | 3 | -0.0381 | 2.7 | 3.62 |
| AP1S2 | 1 | 1.33 | 12.3 | 9.59 |
| AP1S2 | 2 | 0.15 | 4.02 | 6.37 |
| AP1S2 | 3 | -0.431 | -0.0661 | 4.68 |
| IL2RB | 1 | -1.11 | -4.84 | 3.84 |
| IL2RB | 2 | 0.335 | 5.32 | 6.15 |
| IL2RB | 3 | 1.35 | 12.4 | 9.57 |
| NPR2 | 1 | 0.000221 | 2.97 | 4.21 |
| NPR2 | 2 | -0.138 | 2 | 5.56 |
| NPR2 | 3 | 2.77 | 22.4 | 13.7 |
| IK | 1 | 0.985 | 9.9 | 9.18 |
| IK | 2 | 0.396 | 5.75 | 6.49 |
| IK | 3 | 0.229 | 4.58 | 5.01 |
| KIAA0408 | 1 | -1.2 | -5.48 | 2.85 |
| KIAA0408 | 2 | -0.225 | 1.38 | 4.52 |
| KIAA0408 | 3 | 1.98 | 16.9 | 9.57 |
| RPE | 1 | 1.08 | 10.5 | 7.65 |
| RPE | 2 | -1.32 | -6.35 | 2.79 |
| RPE | 3 | -0.174 | 1.74 | 5.35 |
| MCPH1 | 1 | 0.793 | 8.55 | 7.99 |
| MCPH1 | 2 | 2.5 | 20.6 | 13.3 |
| MCPH1 | 3 | 3.19 | 25.4 | 9.32 |
| AIF1L | 1 | 0.262 | 4.81 | 5.71 |
| AIF1L | 2 | 0.308 | 5.13 | 4.98 |
| AIF1L | 3 | -0.339 | 0.584 | 2.58 |
| TDRP | 1 | 0.505 | 6.52 | 4.82 |
| TDRP | 2 | 1.09 | 10.7 | 7.43 |
| TDRP | 3 | 1.5 | 13.5 | 7.48 |
| CEP128 | 1 | -0.881 | -3.23 | 1.94 |
| CEP128 | 2 | 1.74 | 15.2 | 8.93 |
| CEP128 | 3 | -0.0982 | 2.28 | 3.62 |
| BLMH | 1 | 8.16 (active) | 60.4 | 26.6 |
| BLMH | 2 | 0.0744 | 3.49 | 6.14 |
| BLMH | 3 | -0.711 | -2.03 | 3.15 |

12 entries from above, arranged by “raw share of cells in G2 (%)”, descending:
| gene knocked down | reagent | G2 robust z-score | G2 cells, % of GMNN control | raw share of cells in G2 (%) |
| --- | --- | --- | --- | --- |
| HACD4 | 1 | 6.82 (active) | 51 | 22.3 |
| TBC1D10A | 1 | 1.35 | 12.4 | 9.39 |
| CRBN | 3 | 1.07 | 10.5 | 6.56 |
| HACD4 | 2 | 0.41 | 5.85 | 5.84 |
| TBC1D10A | 2 | 0.162 | 4.11 | 5.68 |
| PRKX | 1 | -0.397 | 0.174 | 5.67 |
| NUDT21 | 3 | 0.219 | 4.51 | 5.41 |
| PRKX | 2 | -0.165 | 1.81 | 4.66 |
| PRKX | 3 | -0.804 | -2.69 | 4.5 |
| CRBN | 2 | -0.468 | -0.329 | 4.42 |
| HACD4 | 3 | -0.66 | -1.68 | 4.09 |
| CRBN | 1 | -0.361 | 0.424 | 4.02 |
